Laboratory results: paper PMC10163288
The list shows a part of the results.

B1: il10ra_site1_normal_mot_HHH_b2_07579_000000275_0001_1_19_H_._HHH_b2_06013_0001_0000300024_0000002_0 (protein)
chain: SSSSSDLAQEVIELIREALQIPDPEEAREVAEEALRLAEEIGNEVLRFSAEHVLRDIERGSSSSS
B2: il10ra_site1_sap_14_mot_HHH_b1_07641_af2_000000285_0001_1_21_H_._HHH_b2_06184_0001_0000100001_0000002_0_0001 (protein)
chain: SSSSNEANERVMKLLEEASEAAQNGDPEEAREILEEAERIAEEGGNPILEMQVRWMLERISSSSS
B3: il10ra_site1_sap_21_mot_49468d6c54d8157f7969f91124172a68_0001_af2_000000173_0001_37_51_H_._d30c92881be5d2f229e465dffc40e224_0001_af2_0001_0000600012_0000001_0_0 … (protein)
chain: SSSSSDEEQKLLELLLEAFRLALRGNPEEAEKLLEEAEELARELGDERALRMVEDLLRALSSSSS
B4: il10ra_site1_sap_21_mot_HHH_b1_07571_000000144_0001_42_58_H_._HHH_b2_00141_0001_0000400034_0000001_0_0001 (protein)
chain: SSSSDEEAQEYARRALHFVKALGDKRLTRAAILTVRRLLKETGDPELEKVLEELEELLERGSSSS
B5: il10ra_site1_normal_mot_05ca327611f5605f0dd8494b449afcbf_0001_1_000000248_0001_35_51_H_._HHH_b1_03085_af2_0001_0000600051_0000001_0 (protein)
chain: SSSSNTEEAQELAREAAELLRNGNPEEAHRIAEEALELAEKLGNFALAFAIRLLLEAIERASSSS
B6: il10ra_site1_normal_mot_31949d1e7b999570dbb3257a17d00b36_0001_af2_000000006_0001_15_30_H_._HEEHE_2118_0001_0000500016_0000001_0 (protein)
chain: DRLEIFSRAVEYFAEHAGVPHVEVSVSNGEVEVTFEGDDEIARDASEAVRFSARSIGIKVEVTVE
B7: il10ra_site1_sap_11_mot_HHH_b2_01729_af2_000000109_0001_43_56_H_._ems_3hC_1028_0002_af2_0001_0000900006_0000002_0_0001 (protein)
chain: SSSSDLNQEALELVLEAFRLLLRGDPEEAKELLEEALQVAREGNNERLAEQIEILLRSLKSSSSS
B8: il10ra_site1_sap_12_mot_HHH_b1_05329_000000008_0001_43_56_H_._HHH_b1_04962_0001_0000100003_0000001_0_0001 (protein)
chain: SSSSSHQEVFELLRRAIELAKEGNPEEARELLERAKEIAEELNSRVMKHLIRFVEKVVEDVSSSS
B9: il10ra_site1_sap_19_mot_HHH_b2_00573_000000208_0001_39_53_H_._HHH_b1_02071_0001_0000300025_0000001_0_0001_af2pred_0001 (protein)
chain: SSSSDEEIEERVEELLEEAEHVTDVQEWFRILREALELAAELGDPELQRLVREASRRFIKGSSSS
B10: il10ra_site1_normal_mot_HHH_b2_00475_000000107_0001_44_57_H_._HHH_b1_06647_af2_0001_0000600033_0000002_0 (protein)
chain: SSSSLERRVVELIFRAVRLLANGNPEEAEEVLEEAKELAEELNDEELRRYVEIALHFVRSHSSSS
B11: il10ra_site1_sap_10_mot_HHH_b1_04592_af2_000000261_0001_39_52_H_._HHH_b2_07378_0001_0000100002_0000001_1_0001 (protein)
chain: SSSSSDLAEEAVRLSQEAFHLALRGNPEEARKVLEEALELAEEAGDERLKRVIRDLLSILSSSSS
B12: il10ra_site1_sap_16_mot_HHH_b2_03220_af2_000000223_0001_23_40_H_._HHH_b1_06962_0001_0000300023_0000001_0_0001 (protein)
chain: SSSSDEENRELFELLEEAAELHHEGNPEEARKVLEEARELAEELGNRLFLIQIRFILRLLRSSSS
B13: il10ra_site1_normal_mot_HHH_b2_02043_000000010_0001_1_19_H_._HHH_b1_02566_af2_0001_0000600031_0000001_0 (protein)
chain: SSSNSYEIVREAIEEANELARNGNEEEAEELLEEAIRLLREAGNNAAVFALEQLLRLIEEQSSSS
B14: il10ra_site1_sap_10_mot_HHH_b2_06795_000000133_0001_42_56_H_._HHH_b2_07514_0001_0000100002_0000001_0_0001 (protein)
chain: SSSSDEEEELRRLIEEIQELAEEGDREKFLRLAIEVLRFAIQARNKELFEELWKLIAERFSSSSS
B15: il10ra_site1_sap_14_mot_HHH_b2_02116_af2_000000165_0001_41_55_H_._HHH_b1_06459_0001_0000200026_0000001_0_0001 (protein)
chain: SSSSSSDLEELLEELEKAVEEGDKEKALRIAMEALRLAAQLNDEEAFQELWRLAKEVASSSSSSS
B16: il10ra_site1_normal_mot_513c16ae44941e68898e0f7c259e5a28_0001_1_000000056_0001_35_50_H_._HHH_b1_07409_0001_0000600027_0000001_0 (protein)
chain: SSSSSEEERELIEFIIRLIKQLGNPELAERVEELLEEFEKEGDPEYLREAAEILFRAARLGSSSS
B17: il10ra_site1_normal_mot_HHH_b2_03425_000000200_0001_22_39_H_._HHH_b1_07967_af2_0001_0000100005_0000002_0 (protein)
chain: SSSSNERERLYELLRRLIHLSRHRDEEEFEKVREEIEELVEELNNILARFVLEHIERAFEGSSSS
B18: il10ra_site1_normal_mot_8756ee2cf497b5429c717dfc0c0bcfd6_0001_000000186_0001_1_13_H_._HHH_b1_02799_af2_0001_0000200016_0000001_0 (protein)
chain: SSSSDEEVERVIRLSREAAELDQEGDKEEAEKILREAEEIAEELGNDVLLWQVEYLLELLKSSSS
B19: il10ra_site1_normal_mot_HHH_b1_01821_000000158_0001_23_39_H_._ems_3hM_348_af2_0001_0000400031_0000001_0 (protein)
chain: SDEAQELAEELLQEIWEAFKNNDEETLEEAFEKAREVLEEYNDPNIEAVLRLARFAIESVKDASS
B20: il10ra_site1_normal_mot_HHH_b2_02337_000000026_0001_38_52_H_._HHH_b1_01890_af2_0001_0000100004_0000001_1 (protein)
chain: SSSSDEEEKAEELIREAEELAENGNPEEAARVAQEALRLILELGDEEALQLLWEAVRRLARSSSS
B21: il10ra_site1_sap_18_mot_HHH_b1_02464_000000069_0001_1_19_H_._HHH_b2_01682_0002_0000500034_0000001_0_0001_af2pred_0001 (protein)
chain: SSSSDEEEIEERVEELLEEAKRIEDPEERAYVLTRAYALASRLRDPELEELVREVAIRLSSSSSS
B22: il10ra_site1_sap_26_mot_HHH_b1_04693_000000238_0001_19_36_H_._HHH_b2_03114_0001_0000100008_0000001_0_0001 (protein)
chain: SSSSSSEIEREVEELLEEARHIPDPDEWFRLIEEAIRLATEAQDPELIKLVMEFLREKIRSSSSS
B23: il10ra_site1_sap_23_mot_HHH_b2_07144_000000289_0001_1_18_H_._HHH_b2_00770_af2_0001_0000100004_0000001_0_0001_af2pred_0001 (protein)
chain: SSSSDVEERVEELEEQVRELLENGNPHEALQVIREIARLAAENNDDEAMRIAVELLKLVFSSSSS
B24: il10ra_site1_sap_22_mot_HHH_b2_00076_000000055_0001_40_55_H_._HHH_b1_06547_af2_0001_0000300016_0000001_0_0001_af2pred_0001 (protein)
chain: SSSSDEEEEFMELFLRAFSIANRLNDEEVRRELHELAILFLEHGDPRVEERIKELLEELRSSSSS
B25: il10ra_site1_normal_mot_8756ee2cf497b5429c717dfc0c0bcfd6_0001_000000186_0001_1_13_H_._HHH_b2_03728_af2_0001_0000500030_0000001_1_af2pred_0001 (protein)
chain: SSSSSSSEVVKLIREIAELLREGNPEEAQELIEEAKKLAEELNNELARAILEFLERHANSSSSSS
B26: il10ra_site1_normal_mot_67493b814c2a7b5c52b954d5d9494194_0001_af2_000000062_0001_34_48_H_._HHH_b2_07965_0001_0000300017_0000001_0_af2pred_0001 (protein)
chain: SSSSDEKEKKARLALRLARAALEAGNPRAARINLRWAEKLARELGDEELLEQIEKLLEELNSSSS
B27: il10ra_site1_normal_mot_HHH_b1_05879_000000258_0001_1_19_H_._HHH_b2_00580_0001_0000100016_0000002_0 (protein)
chain: SSSSDTLEWSVRFLLEEVRRLLELGNEEQAEELLRKLLELLEEANDEELTREVQELLEELSSSSS
B28: il10ra_site1_normal_mot_HHH_b2_04680_000000215_0001_1_16_H_._HHH_b2_01626_af2_0001_0000100002_0000001_1 (protein)
chain: SSSSSSDEEIREAYRLVREAFEVDEEERERLLEEARELAERANDFSTIFAIRRALKSLESSSSSS
B29: il10ra_site1_sap_14_mot_HHH_b2_07006_000000108_0001_1_19_H_._HHH_b2_02668_0001_0000100011_0000001_0_0001_af2pred_0001 (protein)
chain: SSSSSRDEEFIRRALRFAKWVEEAGDPEAARFILEAALEIARRANDEEAQEELEELLKELSSSSS
B30: il10ra_site1_normal_mot_HHH_b1_05937_af2_000000262_0001_20_37_H_._HHH_b1_08754_af2_0001_0000100002_0000001_0_af2pred_0001 (protein)
chain: SSSSDDEEHRVLRLIAEAVRLLLNGNPEEAREVIEEAEELVRELGDERLREALEIVERALKSSSS
B31: il10ra_site1_sap_25_mot_HHH_b2_05323_000000159_0001_1_18_H_._HHH_b1_08298_af2_0001_0000500034_0000001_0_0001 (protein)
chain: SSSSDEELQEAFELLREAVEALLDGNPEEAEKLLEEARKLAEEAGNRLLRWQIEWLLEKVRSSSS
B32: il10ra_site1_sap_17_mot_HHH_b1_01821_000000158_0001_23_39_H_._2fd006765095e2299ff75ffcaa73beff_0001_0001_0000100003_0000002_0_0001 (protein)
chain: SSSSNEWYEEVKRLIEEAVKALRNGDEELLEELLKRLEELAEETNTPSVEFAVRLLERARGSSSS
B33: il10ra_site1_sap_17_mot_HHH_b1_08477_000000091_0001_40_57_H_._HHH_b1_06378_0001_0000500043_0000001_0_0001 (protein)
chain: SSSREEVQEIVEEAKKLAEEKNDEELERYVEIAKHFVEAALRQGDEELAHMVAEFLLRAVRDASS
B34: il10ra_site1_normal_mot_HHH_b1_01011_000000096_0001_1_19_H_._HHH_b1_06988_0001_0000400011_0000001_0_af2pred_0001 (protein)
chain: SSSSDRDEELLRLAIRFVKRLLEDGDPEAAKSTVKAALELAKRAGDEELLEELEKLLEELSSSSS
B35: il10ra_site1_normal_mot_HHH_b2_00277_af2_000000172_0001_1_17_H_._HHH_b2_01938_0001_0000200015_0000001_0 (protein)
chain: SSSSSDVEERVEELLEEAKEVDDEEEFRELLREAFLLAARLGDDRLAHEIIRLYAEFHQKSSSSS
B36: il10ra_site1_sap_26_mot_HHH_b1_05056_000000217_0001_1_20_H_._HHH_b2_06767_0001_0000300019_0000002_0_0001 (protein)
chain: SSSSDTQEVMELIKEAIQLLQNGNPEEAKKVLEEAKEIAEELNNWVALFAVEHLLRDIEERSSSS
B37: il10ra_site1_normal_mot_HHH_b2_02757_000000230_0001_1_19_H_._HHH_b1_04215_af2_0001_0000300013_0000002_0 (protein)
chain: SSSSDEELEKLERQLEELIEEGDRERFFRLVQELLRLAFRLSDPEVIQRVWELIKEFKELASSSS

These binders were tested against il10ra, Q13651 (assay: yeast display titration).

Apparent Kd, inactive:
B1 no binding seen
B2 no binding seen
B3 no binding seen
B4 no binding seen
B5 no binding seen
B6 no binding seen
B7 no binding seen
B8 no binding seen
B9 no binding seen
B10 no binding seen
B11 no binding seen
B12 no binding seen
B13 no binding seen
B14 no binding seen
B15 no binding seen
B16 no binding seen
B17 no binding seen
B18 no binding seen
B19 no binding seen
B20 no binding seen
B21 no binding seen
B22 no binding seen
B23 no binding seen
B24 no binding seen
B25 no binding seen
B26 no binding seen
B27 no binding seen
B28 no binding seen
B29 no binding seen
B30 no binding seen
B31 no binding seen
B32 no binding seen
B33 no binding seen
B34 > 384 nM
B35 no binding seen
B36 no binding seen
B37 no binding seen

2 records picked at random from the list so far, as already listed:
Apparent Kd, inactive:
B25 no binding seen
B32 no binding seen
